Test results: US8344028B2, “Gamma-amino-butyric acid derivatives as GABAB receptor ligands” (XenoPort, Inc., priority 2009, dated 2013)
Some of these results come from one statement about several compounds together.

Tested on: rat spinal nerve ligation model
Experiment: Spinal nerve ligation pain model
Type: in vivo
Settings: rats, 1 hour following administration

NCC(CC(=O)O)c1ccc(Cl)cc1 (stereo not shown) [baclofen]
EC50 for efficacy in the spinal nerve ligation model of pain: less than 100 μmol/kg
